PubChem BioAssay AID504648 (National Center for Advancing Translational Sciences (NCATS), 2011)
In all, about 390,000 compounds went through this assay and about 610 (0.16%) were called active. This list was built around the results that the source calls inconclusive (neither active nor inactive); the mix of calls is not that of the screen. Calls follow the shape of the dose curve; as a rule, active = well fitted inhibition curve with a large enough effect; inconclusive = small, poorly fitted or top-dose-only effect, or effect the other way, or another doubt; inactive = no such curve, though single readings can be large or run the other way. Potencies of inconclusive entries are doubtful fits and often do not repeat.

Experiment: Nrf2 qHTS screen for inhibitors: counterscreen for cytotoxicity
Conditions: A549 ARE-Fluc cells, CellTiter-Fluor viability, 18-24 h; activity change, negative = cytotoxicity: at 46 µM (top of the series)
Summary of the method: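 A549 ARE_Fluc cells in 5% FBS OPTI-MEM were exposed to compounds in concentration-response for 18-24 h at 37 deg C. Viability was read by CellTiter-Fluor fluorescence (Ex 405/Em 525) after 30 min, before the luciferase read.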
% is scaled to controls: 0 for no effect and ±100 for the full control effect; potency is read from the fitted curve at half-maximal effect.

SMILES	activity change, negative = cytotoxicity	Potency
CCN(CC)S(=O)(=O)c1ccc2c(c1)N(CC(=O)Nc1cccc(C(C)=O)c1)C(=O)CO2	inactive: -19%	–
CC1CN(C(=O)Nc2ccc(C(=O)NCCc3ccc(Cl)cc3)cc2)c2ccccc2S1 (centres undefined)	inactive: -4.16%	–
CC(=O)Nc1ccc(S(=O)(=O)Nc2nc3ccccc3nc2Nc2ccc(O)cc2)cc1	–	inconclusive: 14.6 µM [falling, partial curve, poor fit]
CCOc1ccc(NCc2cccn2-c2nnc(N3CCC(C(=O)NCCc4ccc(OCC)c(OCC)c4)CC3)s2)cc1	–	inconclusive: 32.6 µM [falling, single point]
Cc1ccc(-c2nc(CSCC(=O)NCc3cccnc3)c(C)o2)cc1	–	inconclusive: 16.4 µM [falling, single point]
Cc1cccc(NC(=O)C(=O)NCC(c2cccnc2)N2CCN(Cc3ccccc3)CC2)c1 (centres undefined)	inactive: -0.505%	–
COC(=O)c1[nH]c2ccc(C)cc2c1NC(=O)CN1CCN(c2ccc(F)cc2)CC1	–	inconclusive: 14.1 µM [falling, single point]
CCOC(=O)c1[nH]c2c(c1C)C(=O)CC(c1ccco1)C2 (centres undefined)	inactive: -2.87%	–
Cc1ccc2nc(C(F)(F)F)c(C#N)c(N)c2c1	–	inconclusive: 29.1 µM [falling, single point]
CC(=O)Oc1cccc2c1C(=O)c1c(OC(C)=O)cc(C(=O)O)cc1C2=O	–	active: 20.6 µM
C=CCN(c1ccccc1)S(=O)(=O)c1cccc(C(=O)Nc2nc3ccccc3[nH]2)c1	–	inconclusive: 8.2 µM [falling, partial curve, poor fit]
FC(F)Oc1ccc(-c2csc(=Nc3cccnc3)n2CC2CCCO2)cc1 (centres undefined)	inactive: 0.465%	–
Cc1n[nH]c(=S)n1/N=C/c1ccccc1OCc1ccc(Cl)cc1Cl	–	inconclusive: 32.6 µM [falling, partial curve, poor fit]
CC1(C)CC(NC(=S)NCc2ccco2)CC(C)(C)N1	–	inconclusive: 13 µM [activator, partial curve]
CS(=O)(=O)c1ccccc1C(=O)Nc1nc2ccccc2[nH]1	inconclusive: -39.9% [activator]	–
COc1ccccc1NCC(O)Cn1c2ccccc2c2ccccc21 (centres undefined)	–	active: 20.6 µM
N#C/C(=C(/O)c1ccc2c(c1)OCO2)c1nc2cc(C(F)(F)F)ccc2s1	–	inconclusive: 20.6 µM [falling, partial curve]
CCCN(CC(=O)Nc1ccccc1Br)CC(=O)Nc1ccc(F)c(F)c1F	inactive: -0.673%	–
COc1ccc(CN(C(=O)c2ccc(OCC(C)C)cc2)C2CCS(=O)(=O)C2)cc1 (centres undefined)	–	inconclusive: 23.1 µM [falling, single point]
